Amino acid sequences for entries named in this document (tags omitted). A change or cut given only in a name is not applied to a line headed by its entry.
UniProt Q8BLU0: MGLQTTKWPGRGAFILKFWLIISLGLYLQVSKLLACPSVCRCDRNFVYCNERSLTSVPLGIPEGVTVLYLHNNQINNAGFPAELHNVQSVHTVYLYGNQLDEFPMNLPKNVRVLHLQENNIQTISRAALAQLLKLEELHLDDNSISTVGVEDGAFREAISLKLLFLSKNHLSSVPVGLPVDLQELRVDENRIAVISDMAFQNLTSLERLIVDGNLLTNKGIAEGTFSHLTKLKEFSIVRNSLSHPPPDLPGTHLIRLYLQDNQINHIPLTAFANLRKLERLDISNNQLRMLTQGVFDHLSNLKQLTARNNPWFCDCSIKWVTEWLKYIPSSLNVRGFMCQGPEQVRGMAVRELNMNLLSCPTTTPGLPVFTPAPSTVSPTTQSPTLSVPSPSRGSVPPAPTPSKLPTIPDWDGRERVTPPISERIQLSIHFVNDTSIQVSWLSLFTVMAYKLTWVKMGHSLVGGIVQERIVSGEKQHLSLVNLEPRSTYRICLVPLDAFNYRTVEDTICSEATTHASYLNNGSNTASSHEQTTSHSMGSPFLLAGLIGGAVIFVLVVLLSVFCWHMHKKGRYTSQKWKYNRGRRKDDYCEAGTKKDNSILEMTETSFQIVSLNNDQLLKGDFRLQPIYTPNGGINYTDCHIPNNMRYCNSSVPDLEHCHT

According to publication PMC4396693, “Structural Basis of Latrophilin-FLRT Interaction” (Structure(London, England:1993), 2015):

Tests used:
[1] = biological target: murine FLRT2^UF full ectodomain (non-Unc5-binding mutant) (murine) (UniProt Q8BLU0); assay: SPR; FLRT2 ectodomains (wild type, UF, FF) amine-coupled to a CM5 Biacore chip, LPHN3 Olf domain injected as analyte; equilibrium, 25°C, PBS pH 7.5, 0.005% polysorbate 20; 1:1 model; both purified
[2] = biological target: murine FLRT2^FF full ectodomain (non-dimerizing, non-FLRT-binding mutant) (murine) (UniProt Q8BLU0); assay: as above

B1: murine LPHN3 olfactomedin domain (LPHN3^Olf, residues 202-463) (domain or fragment, UniProt Q80TS3 202-463, looked up)
chain: LCPGLLKGVYQSEHLFESDHQSGAWCKDPLQASDKIYYMPWTPYRTDTLTEYSSKDDFIAGRPTTTYKLPHRVDGTGFVVYDGALFFNKERTRNIVKFDLRTRIKSGEAIIANANYHDTSPYRWGGKSDIDLAVDENGLWVIYATEQNNGKIVISQLNPYTLRIEGTWDTAYDKRSASNAFMICGILYVVKSVYEDDDNEATGNKIDYIYNTDQSKDSLVDVPFPNSYQYIAAVDYNPRDNLLYVWNNYHVVKYSLDFGPLD
notes: Latrophilin 3 (LPHN3), mouse, olfactomedin-like domain, residues 202-463; also called LPHN3 Olf domain; olfactomedin domain of murine LPHN3; source: kifunensine-treated HEK293T cells, transiently expressed, purified
B1 was tested, and the binding [1] was “binds” and the binding [2] was “no binding”.

Results are given in words; binding and its absence hold for the method and conditions named. For some assays here: Binding can be weak; no strength is given.
